No constants are given. Whether binding was seen depends on the method and setting. Binding seen in cells or lysates may run through a third protein. A result given as binding can be weak or reduced; the word gives no strength.
Biological target: Cathepsin L, endogenous in human monocyte-derived M2 macrophages (human (endogenous in monocyte-derived macrophages)) (UniProt P07711)
Experiment: proximity ligation; Duolink PLA in situ in activated M1 and M2 macrophages, treated or not with Tg, pretreated or not with PU-WS13 or DMSO; pairs of primary antibodies (anti-C3d + anti-GRP94; anti-GRP94 + anti-TLR4; anti-GRP94 + anti-cathepsin L); spots per cell counted

Amino acid sequences for entries named in this document (tags omitted). A change or cut given only in a name is not applied to a line headed by its entry. Residues count along the entry.
UniProt P07711: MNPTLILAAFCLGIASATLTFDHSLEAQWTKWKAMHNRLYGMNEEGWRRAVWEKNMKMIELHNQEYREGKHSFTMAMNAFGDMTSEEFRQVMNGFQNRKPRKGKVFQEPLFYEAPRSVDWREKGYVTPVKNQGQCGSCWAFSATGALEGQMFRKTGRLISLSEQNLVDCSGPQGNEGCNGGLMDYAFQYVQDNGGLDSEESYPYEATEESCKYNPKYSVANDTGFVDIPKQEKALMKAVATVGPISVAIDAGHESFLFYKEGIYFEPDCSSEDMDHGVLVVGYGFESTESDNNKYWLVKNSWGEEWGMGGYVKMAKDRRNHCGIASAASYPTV
UniProt P14625, residues 22-803: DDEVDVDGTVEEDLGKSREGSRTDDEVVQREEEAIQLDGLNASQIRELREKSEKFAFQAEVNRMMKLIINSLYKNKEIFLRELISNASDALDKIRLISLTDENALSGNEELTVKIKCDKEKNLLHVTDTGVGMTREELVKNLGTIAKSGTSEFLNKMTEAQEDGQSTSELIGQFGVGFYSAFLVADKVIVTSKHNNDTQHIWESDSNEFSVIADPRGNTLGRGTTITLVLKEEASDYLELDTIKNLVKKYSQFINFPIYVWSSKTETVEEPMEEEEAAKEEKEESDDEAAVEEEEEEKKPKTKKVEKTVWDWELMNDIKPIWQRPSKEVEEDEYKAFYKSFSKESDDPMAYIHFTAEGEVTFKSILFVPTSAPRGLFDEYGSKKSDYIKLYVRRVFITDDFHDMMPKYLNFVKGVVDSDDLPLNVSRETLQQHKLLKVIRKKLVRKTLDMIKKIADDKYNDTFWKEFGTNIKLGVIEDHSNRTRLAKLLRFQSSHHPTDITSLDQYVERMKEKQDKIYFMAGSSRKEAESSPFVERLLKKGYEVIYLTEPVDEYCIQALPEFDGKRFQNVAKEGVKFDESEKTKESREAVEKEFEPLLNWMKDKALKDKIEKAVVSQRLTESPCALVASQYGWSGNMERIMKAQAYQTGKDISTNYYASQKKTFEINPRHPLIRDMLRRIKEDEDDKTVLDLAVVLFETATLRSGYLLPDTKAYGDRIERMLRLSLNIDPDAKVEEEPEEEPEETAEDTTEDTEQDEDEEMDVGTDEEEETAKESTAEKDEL

“Glucose-regulated protein 94 (GRP94), endogenous in human monocyte-derived macrophages (from UniProt P14625 22-803)” was tested. Which binding did it give?
The binding was “binds”.

— article PMC7822929
